Measurements reported in PubChem BioAssay AID504805 (Drosophila RNAi Screening Center, 2011)
This is not the whole library: the list holds selected reagents. 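Phenotypes are words from visual inspection of images, not measured scores.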 Names joined by + are all predicted targets of the reagent.

- Test: 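Genome-wide fly cell screen for factors exporting mRNA from the nucleus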 (primary screen)
- Cell system: Drosophila S2R+ cells
- Reagent: long dsRNA against Drosophila genes, 0.25 µg dsRNA per well
- Duration: 4 days
- Measured: 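Microscope images of cells stained for poly(A) RNA with a fluorescent oligo-dT probe and for DNA, assessed visually, with a phenotype description given for each replicate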

pch2 (pachytene checkpoint 2) [DRSC14368]
- phenotype, replicate 1: poly(A) RNA held back in the nucleus

CG42676 [DRSC08392]
- phenotype, replicate 1: poly(A) RNA held back in the nucleus

l(2)05714 (lethal (2) 05714) [DRSC03118]
- phenotype, replicate 1: poly(A) RNA held back in the nucleus

CG15147 [DRSC02447]
- phenotype, replicate 1: poly(A) RNA held back in the nucleus

GstD5 (Glutathione S transferase D5) [DRSC16686]
- phenotype, replicate 1: poly(A) RNA held back in the nucleus

Gmppb (GDP-mannose pyrophosphorylase B) [DRSC12169]
- phenotype, replicate 1: poly(A) RNA held back in the nucleus

Dscam1 (Down syndrome cell adhesion molecule 1) [DRSC05048]
- phenotype, replicate 1: poly(A) RNA held back in the nucleus

Hpd (4-hydroxyphenylpyruvate dioxygenase) [DRSC11670]
- phenotype, replicate 1: poly(A) RNA held back in the nucleus

CG12691 [DRSC17880]
- phenotype, replicate 1: poly(A) RNA held back in the nucleus

CG15464 (retired record) [DRSC22086]
- phenotype, replicate 1: poly(A) RNA held back in the nucleus

bves [DRSC20554]
- phenotype, replicate 1: poly(A) RNA held back in the nucleus

Oli (Olig family) [DRSC02866]
- phenotype, replicate 1: poly(A) RNA held back in the nucleus

Sol1 [DRSC15271]
- phenotype, replicate 1: poly(A) RNA held back in the nucleus

Rbp4 (RNA-binding protein 4) [DRSC16818]
- phenotype, replicate 1: poly(A) RNA held back in the nucleus

Hsp23 (Heat shock protein 23) [DRSC11188]
- phenotype, replicate 1: poly(A) RNA held back in the nucleus

twi (twist) [DRSC04720]
- phenotype, replicate 1: poly(A) RNA held back in the nucleus

Papst2 (PAPS transporter 2) [DRSC10924]
- phenotype, replicate 1: poly(A) RNA held back in the nucleus

825-Oak + CG32214 + CG12519 + 1 more [DRSC09615]
- phenotype, replicate 1: poly(A) RNA held back in the nucleus

ZC3H3 [DRSC10696]
- phenotype, replicate 1: poly(A) RNA held back in the nucleus
- phenotype, replicate 2: poly(A) RNA held back in the nucleus

svp (seven up) [DRSC15311]
- phenotype, replicate 1: poly(A) RNA held back in the nucleus

Paf-AHalpha (Platelet-activating factor acetylhydrolase alpha) [DRSC20267]
- phenotype, replicate 1: poly(A) RNA held back in the nucleus

CG8850 [DRSC07287]
- phenotype, replicate 1: poly(A) RNA held back in the nucleus

Traf-like (TNF-receptor-associated factor-like) [DRSC19894]
- phenotype, replicate 1: poly(A) RNA held back in the nucleus

CG43795 [DRSC04310]
- phenotype, replicate 1: poly(A) RNA held back in the nucleus

MAGE [DRSC12504]
- phenotype, replicate 1: poly(A) RNA held back in the nucleus
- phenotype, replicate 2: poly(A) RNA held back in the nucleus

CG32055 [DRSC10666]
- phenotype, replicate 1: poly(A) RNA held back in the nucleus

Lmpt (Limpet) [DRSC09450]
- phenotype, replicate 1: poly(A) RNA held back in the nucleus

CG12688 (retired record) [DRSC17877]
- phenotype, replicate 1: poly(A) RNA held back in the nucleus

CG9760 [DRSC11101]
- phenotype, replicate 1: poly(A) RNA held back in the nucleus

Prim2 (DNA primase subunit 2) [DRSC11610]
- phenotype, replicate 1: poly(A) RNA held back in the nucleus

Sgs4 (Salivary gland secretion 4) [DRSC18715]
- phenotype, replicate 1: poly(A) RNA held back in the nucleus

RpS4 (Ribosomal protein S4) [DRSC11272]
- phenotype, replicate 1: poly(A) RNA held back in the nucleus
- phenotype, replicate 2: poly(A) RNA held back in the nucleus

Vps52 (Vacuolar protein sorting 52) [DRSC03050]
- phenotype, replicate 1: poly(A) RNA held back in the nucleus

Atx2 (Ataxin-2) [DRSC15727]
- phenotype, replicate 1: poly(A) RNA held back in the nucleus

Usp2 (Ubiquitin specific protease 2) [DRSC20633]
- phenotype, replicate 1: poly(A) RNA held back in the nucleus

CG15093 [DRSC06522]
- phenotype, replicate 1: poly(A) RNA held back in the nucleus

RpS14b (Ribosomal protein S14b) [DRSC18711]
- phenotype, replicate 1: poly(A) RNA held back in the nucleus
- phenotype, replicate 2: poly(A) RNA held back in the nucleus

CG15745 (retired record) [DRSC19711]
- phenotype, replicate 1: poly(A) RNA held back in the nucleus

CG32248 [DRSC08102]
- phenotype, replicate 1: poly(A) RNA held back in the nucleus

Uxs (UDP-xylose synthase) [DRSC10941]
- phenotype, replicate 1: poly(A) RNA held back in the nucleus

Hr3 (Hormone receptor 3) [DRSC06118]
- phenotype, replicate 1: poly(A) RNA held back in the nucleus
- phenotype, replicate 2: poly(A) RNA held back in the nucleus

CG30377 [DRSC06799]
- phenotype, replicate 1: poly(A) RNA held back in the nucleus

pyd (polychaetoid) [DRSC16548]
- phenotype, replicate 1: poly(A) RNA held back in the nucleus

CG15202 [DRSC19649]
- phenotype, replicate 1: poly(A) RNA held back in the nucleus

CG12054 [DRSC14467]
- phenotype, replicate 1: poly(A) RNA held back in the nucleus

Os-C [DRSC16778]
- phenotype, replicate 1: poly(A) RNA held back in the nucleus

Part of the list above in another layout:
| gene | dsRNA | phenotype, replicate 1 | phenotype, replicate 2 |
| --- | --- | --- | --- |
| Lmpt (Limpet) | DRSC09450 | poly(A) RNA held back in the nucleus | – |
| CG12688 (retired record) | DRSC17877 | poly(A) RNA held back in the nucleus | – |
| CG9760 | DRSC11101 | poly(A) RNA held back in the nucleus | – |
| Prim2 (DNA primase subunit 2) | DRSC11610 | poly(A) RNA held back in the nucleus | – |
| Sgs4 (Salivary gland secretion 4) | DRSC18715 | poly(A) RNA held back in the nucleus | – |
| RpS4 (Ribosomal protein S4) | DRSC11272 | poly(A) RNA held back in the nucleus | poly(A) RNA held back in the nucleus |
| Vps52 (Vacuolar protein sorting 52) | DRSC03050 | poly(A) RNA held back in the nucleus | – |
